For one molecule, binding results are on record in publication PMC6269477.

Results are given in words; binding and its absence hold for the method and conditions named. In cells and extracts the contact can be indirect.

For this assay, the target named is ZipA (endogenous) (E. coli (endogenous in BW25113)) (UniProt P77173). The assay is described as follows: cross-linking + co-IP; wild-type BW25113 cells cross-linked with DSP; membrane extract (1% Triton X-100, 1 M NaCl) precipitated with antibodies against PBP1A, PBP1B, PBP3 or ZipA on protein G agarose; cross-link reversed, ZipA or FtsN detected by western blot. In general terms: A western blot detects proteins with antibodies after separation by electrophoresis.

B1: FtsN (endogenous) (protein, UniProt P29131 1-319)
chain: MAQRDYVRRSQPAPSRRKKSTSRKKQRNLPAVSPAMVAIAAAVLVTFIGGLYFITHHKKEESETLQSQKVTGNGLPPKPEERWRYIKELESRQPGVRAPTEPSAGGEVKTPEQLTPEQRQLLEQMQADMRQQPTQLVEVPWNEQTPEQRQQTLQRQRQAQQLAEQQRLAQQSRTTEQSWQQQTRTSQAAPVQAQPRQSKPASSQQPYQDLLQTPAHTTAQSKPQQAAPVARAADAPKPTAEKKDERRWMVQCGSFRGAEQAETVRAQLAFEGFDSKITTNNGWNRVVIGPVKGKENADSTLNRLKMAGHTNCIRLAAGG
As for B1, the binding entry is on record as “no binding”.
